From article doi:10.1101/2020.05.04.075176
These are yes or no findings as the source states them, for the method shown.

Chains of the proteins cited; added tags and fusions are not shown. Residues count along the entry.
WRN Helicase (residues 517-1093) (Q14191, residues 517-1093): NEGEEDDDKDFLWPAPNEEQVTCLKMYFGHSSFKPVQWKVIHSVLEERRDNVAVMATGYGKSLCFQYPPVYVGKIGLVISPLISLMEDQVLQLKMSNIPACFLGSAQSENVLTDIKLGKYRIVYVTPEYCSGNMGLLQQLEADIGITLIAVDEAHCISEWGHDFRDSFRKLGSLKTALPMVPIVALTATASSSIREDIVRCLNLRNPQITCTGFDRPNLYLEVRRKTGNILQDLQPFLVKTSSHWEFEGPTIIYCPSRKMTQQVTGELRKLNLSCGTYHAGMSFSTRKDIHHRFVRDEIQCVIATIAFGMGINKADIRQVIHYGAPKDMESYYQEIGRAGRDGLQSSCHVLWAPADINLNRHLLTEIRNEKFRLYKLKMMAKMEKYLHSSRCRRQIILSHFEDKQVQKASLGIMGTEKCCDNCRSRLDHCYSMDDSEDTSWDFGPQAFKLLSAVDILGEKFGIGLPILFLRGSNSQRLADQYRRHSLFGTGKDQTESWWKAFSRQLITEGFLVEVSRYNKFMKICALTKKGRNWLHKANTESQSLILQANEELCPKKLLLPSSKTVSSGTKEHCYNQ
WRN HRDC domain (residues 1142-1242), 15N-labelled (Q14191, residues 1142-1242): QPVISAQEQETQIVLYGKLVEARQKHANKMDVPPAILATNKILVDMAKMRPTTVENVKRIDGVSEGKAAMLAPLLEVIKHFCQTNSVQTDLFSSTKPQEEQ

Assays:
[1] = target: WRN HRDC domain (residues 1142-1242), 15N-labelled (human) (UniProt Q14191); experiment: NMR titration
[2] = target: WRN Helicase (residues 517-1093) (human) (UniProt Q14191); experiment: crystal structure

- binding [1]: no binding (tested: 20 μM)
- binding [2]: no binding
Substance: WRN Helicase (residues 517-1093) (from UniProt Q14191 517-1093) (domain or fragment)
